{
  "sequences": {"note": "Protein sequences, listed by entry. Tags and fused reporters are not part of them. Lines headed by an entry give the natural chain unless they say otherwise; changes in a name come on top.", "UniProt P19474": "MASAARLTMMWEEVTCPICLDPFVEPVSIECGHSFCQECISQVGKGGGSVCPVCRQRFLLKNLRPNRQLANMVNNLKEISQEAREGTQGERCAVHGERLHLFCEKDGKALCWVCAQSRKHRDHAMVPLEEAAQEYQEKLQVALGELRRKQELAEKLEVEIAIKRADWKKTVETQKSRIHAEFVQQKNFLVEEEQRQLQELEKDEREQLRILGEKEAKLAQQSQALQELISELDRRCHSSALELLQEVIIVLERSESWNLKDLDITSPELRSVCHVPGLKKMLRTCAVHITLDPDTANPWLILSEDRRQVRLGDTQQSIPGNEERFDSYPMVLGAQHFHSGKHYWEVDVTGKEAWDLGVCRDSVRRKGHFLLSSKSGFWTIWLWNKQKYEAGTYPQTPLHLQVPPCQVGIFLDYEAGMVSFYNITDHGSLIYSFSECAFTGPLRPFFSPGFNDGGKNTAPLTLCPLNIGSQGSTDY"},
  "source": "paper PMC9951332",
  "binders": {"B1": {"name": "CD73 (NT5E, ecto-5-nucleotidase), endogenous (protein, UniProt P21589 27-549)", "chain": "WELTILHTNDVHSRLEQTSEDSSKCVNASRCMGGVARLFTKVQQIRRAEPNVLLLDAGDQYQGTIWFTVYKGAEVAHFMNALRYDAMALGNHEFDNGVEGLIEPLLKEAKFPILSANIKAKGPLASQISGLYLPYKVLPVGDEVVGIVGYTSKETPFLSNPGTNLVFEDEITALQPEVDKLKTLNVNKIIALGHSGFEMDKLIAQKVRGVDVVVGGHSNTFLYTGNPPSKEVPAGKYPFIVTSDDGRKVPVVQAYAFGKYLGYLKIEFDERGNVISSHGNPILLNSSIPEDPSIKADINKWRIKLDNYSTQELGKTIVYLDGSSQSCRFRECNMGNLICDAMINNNLRHTDEMFWNHVSMCILNGGGIRSPIDERNNGTITWENLAAVLPFGGTFDLVQLKGSTLKKAFEHSVHRYGQSTGEFLQVGGIHVVYDLSRKPGDRVVKLDVLCTKCRVPSYDPLKMDEVYKVILPNFLANGGDGFQMIKDELLRHDSGDQDINVVSTYISKMKVIYPAVEGRIKFS"}, "B2": {"name": "ectopically expressed CD73 (co-IP of Figure S6B) (protein, UniProt P21589 27-549)", "chain": "B1 chain"}, "B3": {"name": "His-CD73, recombinant (GST pull-down) (protein, UniProt P21589 27-549)", "chain": "B1 chain"}, "B4": {"name": "His-CD73 (HEK-293T) (protein, UniProt P21589 27-549)", "chain": "B1 chain"}},
  "key": {"[1]": {"molecular_target": "TRIM21, endogenous (human (endogenous in PANC-1)) (UniProt P19474)", "assay": "proximity ligation; Duolink In Situ Red Starter Kit Mouse/Rabbit in PANC-1 and BxPC-3 cells; mouse IgG as negative control"}, "[2]": {"molecular_target": "TRIM21, endogenous (human (endogenous in PANC-1)) (UniProt P19474)", "assay": "co-IP; endogenous proteins in PANC-1 (and L3.7) lysate, IP lysis buffer, antibody overnight at 4 °C, Protein A/G PLUS-Agarose, immunoblot; also in cells with CD73 overexpressed or knocked down, with Snail changed, or treated with diclofenac"}, "[3]": {"molecular_target": "ectopically expressed TRIM21 (co-IP of Figure S6B) (UniProt P19474)", "assay": "co-IP; ectopically expressed CD73 and TRIM21 (Figure S6B); cells and tags not given"}, "GST-TRIM21, recombinant": {"molecular_target": "GST-TRIM21, recombinant (UniProt P19474)", "assay": "pull-down; Pierce GST Protein Interaction Pull Down Kit; GST or GST-TRIM21 on glutathione agarose, incubated with recombinant CD73 or Snail, eluted, immunoblot; both purified"}, "[4]": {"molecular_target": "HA tagged TRIM21, wild type (HEK-293T) (UniProt P19474)", "assay": "co-IP; HA tagged TRIM21 or its deletion mutants co-transduced with His-CD73 or Flag-Snail into HEK-293T cells, immunoprecipitated with an anti-HA antibody, Western blot"}},
  "note": "These are yes or no findings as the source states them, for the method shown. For some assays here: Binding seen in cells or lysates may run through a third protein. Some results given as binding are weak or reduced against the parent protein; the word gives no strength. For some assays here: Sequences can lack the tags named with a protein.",
  "data": [
    {"binder": "B1", "values": [
      {"measurement": "binding", "setting": "[1]", "value": "binds"},
      {"measurement": "binding", "setting": "[2]", "value": "binds"}
    ]},
    {"binder": "B2", "values": [
      {"measurement": "binding", "setting": "[3]", "value": "binds"}
    ]},
    {"binder": "B3", "values": [
      {"measurement": "binding", "setting": "GST-TRIM21, recombinant", "value": "binds"}
    ]},
    {"binder": "B4", "values": [
      {"measurement": "binding", "setting": "[4]", "value": "binds"}
    ]}
  ]
}
